Laboratory results as given in patent US20050261306A1, “Anti-neurodegenerative agents” (priority 2002, published 2005).
At least one compound was matched to its structure with a doubt left.

Test system: HeLa cells
Assay: Cell-death suppressing effect in HeLa cells with cell-death inducing agent, Alamar Blue viable cell count (Example 3)
Format: cell-based
Details: final concentration of 10 μM of each compound at the time of incubation

Compound: O=C(CCCN1CCC2(CC1)C(=O)N(Cc1cccc(F)c1)CN2c1ccccc1)c1ccc(F)cc1.O=C(O)/C=C\C(=O)O [Compound 0701, 3′-fluorobenzylspiperone, reference compound]
- Result (cell-death suppressing effect, tests of Example 3): ±
